From patent US12091402B2 (Avilar Therapeutics, Inc., priority 2021, dated 2024) come the findings set out here.

The nature of one data set: general procedure: Fmoc solid-phase peptide synthesis; AM Resin (0.30 mmol/g); CTC Resin; HBTU/DIEA. The conditions noted are these: oxidative folding step.
On to “3-((2S,5aR,11S,14R,17S,20S,23S,26S,32S,35S,38S,41S,44R,47S,49aS)-35-((1H-imidazol-5-yl)methyl)-17,38-bis((1H-indol-3-yl)methyl)-2-amino-47-(carboxymethyl)-11-((R)-1-hydroxyethyl)-23,32-diisobutyl-20-isopropyl-41-methyl-5,10,13,16,19,22,25,28,31,34,37,40,43,46,49-pentadecaoxooctatetracontahydro-5H-14,44-(methanodithiomethano)dipyrrolo[1,2-a:1′,2′-d][1,4,7,10,13,16,19,22,25,28,31,34,37,40,43]pentadecaazacyclopentatetracontin-26-yl)propanoic acid”, for which the “final purity (method not given)” value is listed as 85% purity.

Staying with this data set, now noted: whole synthesis.
On to “2-((2S,5aR,11S,14R,17S,20S,23S,26S,32S,35S,38S,41S,44R,47S,49aS)-35-((1H-imidazol-5-yl)methyl)-17,38-bis((1H-indol-3-yl)methyl)-2-amino-11-((R)-1-hydroxyethyl)-23,32-diisobutyl-20-isopropyl-26,41-dimethyl-5,10,13,16,19,22,25,28,31,34,37,40,43,46,49-pentadecaoxooctatetracontahydro-5H-14,44-(methanodithiomethano)dipyrrolo[1,2-a:1′,2′-d][1,4,7,10,13,16,19,22,25,28,31,34,37,40,43]pentadecaazacyclopentatetracontin-47-yl)acetamide”, for which the “final purity (method not given)” value is on record as 97.0% purity and the isolated yield stood at 18.6% yield.

For the substance “2-((2S,5aR,11S,14R,17S,20S,23S,26S,32S,35S,38S,41S,44R,47S,49aS)-35-((1H-imidazol-5-yl)methyl)-17,38-bis((1H-indol-3-yl)methyl)-2-amino-11-((R)-1-hydroxyethyl)-23,32-diisobutyl-20-isopropyl-26,41-dimethyl-5,10,13,16,19,22,25,28,31,34,37,40,43,46,49-pentadecaoxooctatetracontahydro-5H-14,44-(methanodithiomethano)dipyrrolo[1,2-a:1′,2′-d][1,4,7,10,13,16,19,22,25,28,31,34,37,40,43]pentadecaazacyclopentatetracontin-47-yl)acetic acid”, the “final purity (method not given)” value worked out at 95.0% purity and the isolated yield is recorded as 25.5% yield.

As to “2-((2S,5aR,11S,14R,17S,20S,23S,26S,32S,35S,38S,41S,44R,47S,49aS)-35-((1H-imidazol-5-yl)methyl)-17,38-bis((1H-indol-3-yl)methyl)-2-amino-11-((R)-1-hydroxyethyl)-23,32-diisobutyl-20-isopropyl-41-methyl-26-(3-(methylamino)-3-oxopropyl)-5,10,13,16,19,22,25,28,31,34,37,40,43,46,49-pentadecaoxooctatetracontahydro-5H-14,44-(methanodithiomethano)dipyrrolo[1,2-a:1′,2′-d] [1,4,7,10,13,16,19,22,25,28,31,34,37,40,43]pentadecaazacyclopentatetracontin-47-yl)acetic acid”, the “final purity (method not given)” value is given as 95.4% purity and the isolated yield is recorded as 16.8% yield.

Regarding “2-((2S,5aR,11S,14R,17S,20S,23S,26S,32S,35S,38S,41S,44R,47S,49aS)-35-((1H-imidazol-5-yl)methyl)-17,38-bis((1H-indol-3-yl)methyl)-2-amino-26-(3-(dimethylamino)-3-oxopropyl)-11-((R)-1-hydroxyethyl)-23,32-diisobutyl-20-isopropyl-41-methyl-5,10,13,16,19,22,25,28,31,34,37,40,43,46,49-pentadecaoxooctatetracontahydro-5H-14,44-(methanodithiomethano)dipyrrolo[1,2-a:1′,2′-d][1,4,7,10,13,16,19,22,25,28,31,34,37,40,43]pentadecaazacyclopentatetracontin-47-yl)acetic acid”, the “final purity (method not given)” value was 96.2% purity and the isolated yield is given as 13.2% yield.

Consider “2-((2S,5aR,11S,14R,17S,20S,23S,26S,32S,35S,38S,41S,44R,47S,49aS)-35-((1H-imidazol-5-yl)methyl)-17,38-bis((1H-indol-3-yl)methyl)-2-amino-26-(3-amino-3-oxopropyl)-11-((R)-1-hydroxyethyl)-23,32-diisobutyl-20-isopropyl-41-methyl-5,10,13,16,19,22,25,28,31,34,37,40,43,46,49-pentadecaoxooctatetracontahydro-5H-14,44-(methanodithiomethano)dipyrrolo[1,2-a:1′,2′-d][1,4,7,10,13,16,19,22,25,28,31,34,37,40,43]pentadecaazacyclopentatetracontin-47-yl)acetic acid”, for which the “final purity (method not given)” value is listed as 96.2% purity and the isolated yield was found to be 25.7% yield.

As for “3-((2S,5aR,11S,14R,17R,20S,23S,26S,32S,35S,38S,41S,44R,47S,49aS)-35-((1H-imidazol-5-yl)methyl)-17,38-bis((1H-indol-3-yl)methyl)-2-amino-47-(carboxymethyl)-11-((R)-1-hydroxyethyl)-23,32-diisobutyl-20-isopropyl-41-methyl-5,10,13,16,19,22,25,28,31,34,37,40,43,46,49-pentadecaoxooctatetracontahydro-5H-14,44-(methanodithiomethano)dipyrrolo[1,2-a:1′,2′-d][1,4,7,10,13,16,19,22,25,28,31,34,37,40,43]pentadecaazacyclopentatetracontin-26-yl)propanoic acid”, the “final purity (method not given)” value is 95.6% purity and the isolated yield turned out to be 20.9% yield.

Regarding “3-((2S,5aR,11S,14R,17S,20S,23S,26S,32S,35S,38S,41S,44R,47S,49aS)-35-((1H-imidazol-5-yl)methyl)-17,38-bis((1H-indol-3-yl)methyl)-2-amino-11-((R)-1-hydroxyethyl)-23,32-diisobutyl-20-isopropyl-41,47-dimethyl-5,10,13,16,19,22,25,28,31,34,37,40,43,46,49-pentadecaoxooctatetracontahydro-5H-14,44-(methanodithiomethano)dipyrrolo[1,2-a:1′,2′d][1,4,7,10,13,16,19,22,25,28,31,34,37,40,43]pentadecaazacyclopentatetracontin-26-yl)-N,N-dimethylpropanamide (PACAWHLGQLVWCTP; D-residues; cyclised or stapled)”, the “final purity (method not given)” value was determined as 94.4% purity and the isolated yield amounted to 6.4% yield.

Regarding “3-((2S,5aR,11S,14R,17S,20S,23S,26S,32S,35S,38S,41S,44R,47S,49aS)-35-((1H-imidazol-5-yl)methyl)-17,38-bis((1H-indol-3-yl)methyl)-2-amino-11-((R)-1-hydroxyethyl)-41-(hydroxymethyl)-23,32-diisobutyl-20-isopropyl-47-methyl-5,10,13,16,19,22,25,28,31,34,37,40,43,46,49-pentadecaoxooctatetracontahydro-5H-14,44-(methanodithiomethano)dipyrrolo[1,2-a:1′,2′-d][1,4,7,10,13,16,19,22,25,28,31,34,37,40,43]pentadecaazacyclopentatetracontin-26-yl)propanoic acid (PACSWHLGELVWCTP; D-residues; cyclised or stapled)”, the “final purity (method not given)” value is 96.1% purity and the isolated yield worked out at 16.4% yield.

On to “3-((2S,5aR,11S,14R,17S,20S,23S,26S,32S,35S,38S,41S,44R,47S,49aS)-35-((1H-imidazol-5-yl)methyl)-17,38-bis((1H-indol-3-yl)methyl)-2-amino-47-(2-amino-2-oxoethyl)-11-((R)-1-hydroxyethyl)-23,32-diisobutyl-20-isopropyl-41-methyl-5,10,13,16,19,22,25,28,31,34,37,40,43,46,49-pentadecaoxooctatetracontahydro-5H-14,44-(methanodithiomethano)dipyrrolo[1,2-a:1′,2′-d][1,4,7,10,13,16,19,22,25,28,31,34,37,40,43]pentadecaazacyclopentatetracontin-26-yl)-N,N-dimethylpropanamide”, for which the “final purity (method not given)” value is listed as 96.9% purity and the isolated yield is 22.0% yield.

On to “3-((2S,5aR,11S,14R,17S,20S,23S,26S,32S,35S,38S,41S,44R,47S,49aS)-35-((1H-imidazol-5-yl)methyl)-17,38-bis((1H-indol-3-yl)methyl)-2-amino-47-(2-amino-2-oxoethyl)-11-((R)-1-hydroxyethyl)-23,32-diisobutyl-20-isopropyl-41-methyl-5,10,13,16,19,22,25,28,31,34,37,40,43,46,49-pentadecaoxooctatetracontahydro-5H-14,44-(methanodithiomethano)dipyrrolo[1,2-a:1′,2′-d][1,4,7,10,13,16,19,22,25,28,31,34,37,40,43]pentadecaazacyclopentatetracontin-26-yl)propanoic acid”, for which the “final purity (method not given)” value was determined as 97.5% purity and the isolated yield came to 26.0% yield.

In the case of “3-((2S,5aR,11S,14R,17S,20S,23S,26S,32S,35S,38S,41S,44R,47S,49aS)-35-((1H-imidazol-5-yl)methyl)-17,38-bis((1H-indol-3-yl)methyl)-2-amino-47-(carboxymethyl)-11,41-bis((R)-1-hydroxyethyl)-23,32-diisobutyl-20-isopropyl-5,10,13,16,19,22,25,28,31,34,37,40,43,46,49-pentadecaoxooctatetracontahydro-5H-14,44-(methanodithiomethano)dipyrrolo[1,2-a:1′,2′-d][1,4,7,10,13,16,19,22,25,28,31,34,37,40,43]pentadecaazacyclopentatetracontin-26-yl)propanoic acid (PDCTWHLGELVWCTP; D-residues; cyclised or stapled)”, the “final purity (method not given)” value is given as 96.9% purity and the isolated yield is given as 30.5% yield.

The data set is the same for the next values; noted with them: whole synthesis, scale 20 mmol*4, TFA salt.
Turning to “3-((2S,5aR,11S,14R,17S,20S,23S,26S,32S,35S,38S,41S,44R,47S,49aS)-35-((1H-imidazol-5-yl)methyl)-17,38-bis((1H-indol-3-yl)methyl)-2-amino-47-(carboxymethyl)-11-((R)-1-hydroxyethyl)-23,32-diisobutyl-20-isopropyl-41-methyl-5,10,13,16,19,22,25,28,31,34,37,40,43,46,49-pentadecaoxooctatetracontahydro-5H-14,44-(methanodithiomethano)dipyrrolo[1,2-a:1′,2′-d][1,4,7,10,13,16,19,22,25,28,31,34,37,40,43]pentadecaazacyclopentatetracontin-26-yl)propanoic acid”, the isolated mass stood at 25.00 g.

The data set is the same for the next values; noted with them: whole synthesis, scale 20 mmol, TFA salt.
With “3-((2S,5aR,11S,14R,17S,20S,23S,26S,32S,35S,38S,41S,44R,47S,49aS)-35-((1H-imidazol-5-yl)methyl)-17,38-bis((1H-indol-3-yl)methyl)-2-amino-47-(carboxymethyl)-11-((R)-1-hydroxyethyl)-23,32-diisobutyl-20-isopropyl-41-methyl-5,10,13,16,19,22,25,28,31,34,37,40,43,46,49-pentadecaoxooctatetracontahydro-5H-14,44-(methanodithiomethano)dipyrrolo[1,2-a:1′,2′-d][1,4,7,10,13,16,19,22,25,28,31,34,37,40,43]pentadecaazacyclopentatetracontin-26-yl)propanoic acid”, the “final purity (method not given)” value was found to be 88.3% purity, the isolated mass was 6.25 g and the isolated yield turned out to be 18.1% yield.
